Reference: US7727961B2, “Antioxidant constituents” (Tokai Bussan Co., Ltd., priority 2004, dated 2010)
At least one structure is not confirmed: it was looked up by name or label, or the drawing left a doubt.

Assay: Inhibition of ovalbumin (Ova) oxidative degradation by OH radical
Procedure: ClO•, OH•, and NO3• were prepared as three typical active oxygen species produced in the body. Clo• was prepared using a method wherein sodium hypochlorite was diluted to a pH 6.5 with distilled water, OH• by a partially modified Fenton method (B. Halliwell, et al., Analytical Biochmistry, No. 165, p. 215-219, 1987), and NO3• by a modified quenching flow reactor method (R. Radi, et al., Journal of Biological Chemistry, Vol. 266, p. 4244-4250, 1991). […] After the reaction, sodium dodecylsulfate-polyacrylamide gel electrophoresis (SDS-PAGE) was performed on each sample, the gel was stained with Coomassie blue R250, and the Ova degradation inhibition rate was calculated from the densitometer reading. An accurate degradation inhibition rate was calculated using the following formula from the proteolytic inhibition activity obtained by performing GPC-HPLC using a TSKG-3,000SW column directly on the reacted samples. […]

SMILES: Cc1c(C)c2c(c(C)c1O)CC[C@@](C)(CCC[C@H](C)CCC[C@H](C)CCCC(C)C)O2 [Vitamin E, α-tocopherol]
- Antioxidant activity against OH• (inhibition of proteolysis) relative to caffeic acid derivatives (fraction of the activity of caffeic acid derivatives): 1/1000 to 1/500
- Antioxidant activity against OH• (inhibition of proteolysis) relative to catechins and quercetin (fraction of the activity of the polyphenol catechins and quercetin): 1/2000 to 1/1000
